Article PMC8816926
These are yes or no findings as the source states them, for the method shown. For some assays here: Binding seen in cells or lysates may run through a third protein. Some entries that bind do so weakly or less than the wild type.

Chains of the proteins cited; added tags and fusions are not shown. Lines headed by an entry give the natural chain unless they say otherwise; changes in a name come on top.
UniProt P56178: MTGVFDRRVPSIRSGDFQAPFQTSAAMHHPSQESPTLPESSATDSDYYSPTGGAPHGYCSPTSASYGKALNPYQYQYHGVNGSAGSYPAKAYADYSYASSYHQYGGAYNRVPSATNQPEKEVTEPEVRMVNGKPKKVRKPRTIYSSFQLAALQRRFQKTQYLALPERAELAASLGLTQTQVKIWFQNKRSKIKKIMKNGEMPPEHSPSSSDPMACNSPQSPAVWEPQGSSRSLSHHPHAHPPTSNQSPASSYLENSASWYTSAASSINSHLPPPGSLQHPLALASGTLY
UniProt O60479: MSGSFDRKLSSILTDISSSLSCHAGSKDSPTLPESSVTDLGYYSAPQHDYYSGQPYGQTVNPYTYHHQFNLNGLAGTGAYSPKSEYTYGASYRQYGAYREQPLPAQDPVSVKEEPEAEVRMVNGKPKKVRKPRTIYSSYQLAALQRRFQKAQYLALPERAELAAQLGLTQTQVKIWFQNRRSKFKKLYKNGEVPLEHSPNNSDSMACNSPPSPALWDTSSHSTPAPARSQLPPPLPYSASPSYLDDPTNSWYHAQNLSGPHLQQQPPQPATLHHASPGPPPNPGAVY
UniProt Q8TDD2: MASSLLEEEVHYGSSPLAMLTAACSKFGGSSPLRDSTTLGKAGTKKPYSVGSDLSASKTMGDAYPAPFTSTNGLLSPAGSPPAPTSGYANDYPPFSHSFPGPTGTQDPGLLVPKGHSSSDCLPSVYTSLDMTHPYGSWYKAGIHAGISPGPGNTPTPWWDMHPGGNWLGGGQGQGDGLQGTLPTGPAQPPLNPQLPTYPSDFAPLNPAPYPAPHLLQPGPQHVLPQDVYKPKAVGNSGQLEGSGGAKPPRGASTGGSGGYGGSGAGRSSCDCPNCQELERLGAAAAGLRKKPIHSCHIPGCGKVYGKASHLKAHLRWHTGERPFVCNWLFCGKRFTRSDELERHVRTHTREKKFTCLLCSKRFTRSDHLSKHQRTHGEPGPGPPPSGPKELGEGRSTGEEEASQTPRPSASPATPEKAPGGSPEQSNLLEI

How the values were obtained:
myc-tagged DLX5 [1] = biological target: myc-tagged DLX5 (UniProt P56178); experiment: co-IP; competition co-IP: HEK293 co-transfected with myc-DLX3 or myc-DLX5 and equal amounts of HA-wild-type SP7 and FLAG-mutant SP7, or vice versa; IP with anti-myc; blots with anti-FLAG and anti-HA
myc-tagged DLX3 = myc-tagged DLX3 (UniProt O60479); experiment: as above
[2] = biological target: FLAG-tagged S309W SP7 mutant (human) (UniProt Q8TDD2); experiment: co-IP; HEK293 co-transfected with FLAG-SP7 (wild-type or mutant) and myc-DLX3 or myc-DLX5; 48 h; IP with anti-FLAG (M2) on Dynabeads Protein G; western blot
[3] = biological target: FLAG-tagged human wild-type SP7 (human) (UniProt Q8TDD2); experiment: as above
myc-tagged DLX5 [4] = biological target: myc-tagged DLX5 (UniProt P56178); experiment: native gel or EMSA; 2 ug nuclear extract of transfected HEK293 (SP7 wild-type or mutant and/or DLX5), biotin-labelled AT-rich oligo probe, 12% glycerol; supershift with anti-myc or anti-FLAG; the second shift is read as DLX5-SP7-DNA complex
myc-tagged DLX5 [5] = biological target: myc-tagged DLX5 (UniProt P56178); experiment: oligo co-immunoprecipitation; 200 ug nuclear extract of transfected HEK293, 100 pmol biotinylated AT-rich oligo, streptavidin magnetic particles, 4 C, 2 h; 50 mM KCl, 25 mM HEPES-KOH pH 7.7; western blot; SP7 reaches the oligo through DLX

Row | Substance | binding (myc-tagged DLX5 [1]) | binding (myc-tagged DLX3) | binding [3] | other results
1 | HA-tagged wild-type SP7 (from UniProt Q8TDD2-1 1-431) | binds | binds | – | –
2 | myc-tagged DLX3 (from UniProt O60479 1-287) | – | – | binds | binding [2]: binds
3 | myc-tagged DLX5 (from UniProt P56178 1-289) | – | – | binds | –
4 | HA-tagged mutant SP7 (S309W) (from UniProt Q8TDD2-1 1-431) | – | binds | – | –

Further lines, with some results ahead:

Row | binding (myc-tagged DLX5 [1]) | binding (myc-tagged DLX3) | binding [3] | Substance | other results
5 | – | binds | – | FLAG-tagged S309W SP7 mutant (from UniProt Q8TDD2-1 1-431) | –
6 | binds | binds | – | FLAG-tagged human wild-type SP7 (from UniProt Q8TDD2-1 1-431) | binding (myc-tagged DLX5 [4]): binds; binding (myc-tagged DLX5 [5]): binds
